Results as given in PubChem BioAssay AID504467 (National Center for Advancing Translational Sciences (NCATS), 2011).
In all, about 330,000 compounds went through this assay and about 7,700 (2.3%) were called active. This list was built around the results that the source calls inconclusive (neither active nor inactive); the mix of calls is not that of the screen. Calls follow the shape of the dose curve; as a rule, active = well fitted inhibition curve with a large enough effect; inconclusive = small, poorly fitted or top-dose-only effect, or effect the other way; inactive = flat fitted curve, though single readings scatter. Potencies beside an inconclusive call are fits to weak or partial responses and may not hold up.
% is scaled to controls: 0 for no effect and ±100 for the full control effect; potency is read from the fitted curve at half-maximal effect.

Experiment: qHTS screen for small molecules that inhibit ELG1-dependent DNA repair in human embryonic kidney (HEK293T) cells expressing luciferase-tagged ELG1; also: nearly all actives have a fitted effect of over 55% in size
Conditions: HEK293T ELG1-luciferase reporter, luminescence, 16 h, DNA damage induced by 5-fluorouridine; activity change, negative = inhibition: at 46.1 µM (top of the series)
Procedure, shortened: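 Cells (2,000 per well) received 5-fluorouridine plus test compound or DMSO and were incubated 16 hr at 37 °C, 5% CO2. Luciferase activity was read by luminescence 30 min after ONE-Glo addition; signal suppression marked inhibition of damage-induced ELG1 function.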
For `COc1ccc(-c2cn3cc(Br)cnc3n2)cc1`, the Potency was inconclusive: 7.3 µM [activator, partial curve]. In the case of `CC(=O)Nc1ccc(C2=NNC(=Nc3cccc(S(=O)(=O)N(C)C)c3)SC2)cc1`, the Potency is reported as inconclusive: 14.6 µM [inhibitor, partial curve]. With `Cc1ccc(C)n1-c1ccc(-c2ccn[nH]2)cc1` the Potency was inconclusive: 20.6 µM [activator, partial curve]. For `COc1ccc(OCCn2cnc(Cl)c2Cl)cc1`, the Potency was inconclusive: 29.1 µM [inhibitor, single point]. For `Cc1ccc(CN(C(=O)c2csnn2)C(C(=O)NC2CCCC2)c2ccco2)cc1` (stereo not given), the “activity change, negative = inhibition” value was inactive: 1.54%. For `COc1ccc(CCNC(=O)c2cc(-c3cccs3)on2)cc1OC`, the Potency was inconclusive: 13 µM [activator, partial curve, poor fit]. With `Fc1ccccc1-c1ccc(/C=N/Nc2nc3ccccc3[nH]2)o1` the Potency was inconclusive: 5.17 µM [activator, partial curve]. For `COc1ccc(CC(=O)Oc2ccc(F)c(F)c2)cc1S(=O)(=O)N1CCOCC1`, the “activity change, negative = inhibition” value was inactive: 21.1%. For `CS(=O)(=O)c1ccc2nc(NC(=O)c3cccc(Cl)c3)sc2c1`, the “activity change, negative = inhibition” value was inactive: 8.71%. For `CCc1nnc(NS(=O)(=O)c2ccc(NC(=O)c3ccc(Cl)cc3)cc2)s1`, the Potency was inconclusive: 25.9 µM [activator, partial curve, poor fit]. For `Cc1cc(CN(C)Cc2cn(C)nc2-c2ccc(Oc3ccccc3)cc2)on1`, the Potency was inconclusive: 18.3 µM [inhibitor, partial curve]. With `O=C(Nc1c2c(nn1-c1cccc(Cl)c1)CS(=O)(=O)C2)c1ccc2c(c1)OCO2` the “activity change, negative = inhibition” value was inactive: -28.8%. With `CC(=O)c1ccc(NC(=O)CCc2c(C)nc3ncnn3c2C)cc1` the Potency was inconclusive: 23.1 µM [activator, single point]. With `CC1CCc2nc(NC(=O)C3CC3)sc2C1` (stereo not given) the Potency was inconclusive: 11.6 µM [activator, partial curve]. With `CCOC(=O)CNC(=O)CSc1nnc(NC(=O)c2ccc(C)cc2)s1` the Potency was inconclusive: 1.3 µM [activator, partial curve]. With `CC1(C)N=c2ccc([N+](=O)[O-])c(N)c2=[N+]1[O-]` the Potency was inconclusive: 18.3 µM [inhibitor, single point]. With `COc1ccc(-c2noc(Cc3ccc(Cl)cc3)n2)cc1OC` the Potency was inconclusive: 8.2 µM [inhibitor, partial curve]. In the case of `Clc1ccc(CSC2=NCCCN2)cc1Cl`, the “activity change, negative = inhibition” value is reported as inactive: -10.6%. With `C=CCn1c(SCc2ccc(Cl)cc2)nc2c1c(=O)[nH]c(=O)n2C` the “activity change, negative = inhibition” value was inactive: 13.1%. For `CC(=O)Nc1ccc(S(=O)(=O)N2CCN(C3CCCCCCC3)CC2)cc1`, the Potency was inconclusive: 23.1 µM [inhibitor, partial curve]. For `CC(=O)c1ccc(OCC(=O)N2CCN(S(=O)(=O)c3ccc(Br)s3)CC2)cc1`, the Potency was inconclusive: 20.6 µM [inhibitor, single point]. With `COc1cccc(OCc2cc(C(=O)N(C)Cc3nc(C)cs3)no2)c1` the Potency was inconclusive: 9.2 µM [activator, partial curve]. In the case of `Cc1csc(N(C(=O)c2ccc(S(=O)(=O)N(C)C)cc2)c2ccccc2)n1`, the “activity change, negative = inhibition” value is reported as inactive: 5.07%. With `C=CCn1c(=O)c2ccccc2n2c(SCC(=O)Nc3sc(C(=O)N(CC)CC)c(C)c3C(=O)OCC)nnc12` the Potency was active: 20.6 µM. With `COC(=O)c1c(C)[nH]c(C(=O)CN2C(=O)NC3(CCOc4ccccc43)C2=O)c1C` (stereo not given) the Potency was inconclusive: 29.1 µM [inhibitor, single point]. In the case of `Nc1c(C(=O)OCC(=O)Nc2cccc([N+](=O)[O-])c2)[nH]c(=O)[nH]c1=O`, the “activity change, negative = inhibition” value is reported as inactive: 7.1%. For `N/C(=N\OC(=O)COc1ccc(Cl)cc1Br)c1ccncc1`, the Potency was inconclusive: 10.3 µM [activator, partial curve]. With `NC(CSCc1cccc(Br)c1)C(=O)O` (stereo not given) the “activity change, negative = inhibition” value was inactive: -4.12%. With `O=C(COc1ccc2c3c(c(=O)oc2c1)CCC3)NCc1ccccn1` the Potency was inconclusive: 16.4 µM [activator, single point]. In the case of `N#C/C(C(=O)c1ccccc1)=C1/CCCCCN1`, the Potency is reported as inconclusive: 9.2 µM [activator, partial curve]. For `CC(=O)c1cc2c(cc1NS(=O)(=O)c1cccc(C(=O)O)c1)OCO2`, the “activity change, negative = inhibition” value was inactive: 11.7%. In the case of `CC(=O)Nc1ccc(NC(=O)CN2CCN(c3ccccn3)CC2)cc1`, the “activity change, negative = inhibition” value is reported as inactive: 14.8%. With `COc1cccc(NC(=O)C2CCC(CNS(=O)(=O)c3ccc4c(c3)CC(C)N4C(C)=O)CC2)c1` (stereo not given) the Potency was inconclusive: 3.66 µM [activator, single point]. For `COc1cc(OC)cc(-c2c(C#Cc3ccsc3)c3cc(Br)ccc3n2C)c1`, the “activity change, negative = inhibition” value was inactive: 8.61%. With `Cc1ccc(/C(N)=N/OC(=O)c2ccc3ccccc3c2)cc1` the Potency was inconclusive: 25.9 µM [activator, single point]. For `Cn1c(CCN2CCN(c3ccccn3)CC2)nc2cc(NC(=O)COc3ccccc3)ccc21`, the Potency was inconclusive: 10.3 µM [inhibitor, partial curve, poor fit]. For `COc1cccc(NC(=O)COC(=O)Cn2c(C)csc2=O)c1`, the “activity change, negative = inhibition” value was inactive: 2.66%. For `CC1CC(C)CN(c2ncnc3c2cnn3C)C1` (stereo not given), the “activity change, negative = inhibition” value was inactive: -11.1%. For `COc1cccc(-c2nc(NCC3CCCO3)c3ccccc3n2)c1O` (stereo not given), the Potency was inconclusive: 2.59 µM [inhibitor, partial curve]. With `CC(CCOC1=NS(=O)(=O)c2ccccc21)NC(=O)C(=O)Nc1ccccc1` (stereo not given) the Potency was inconclusive: 20.6 µM [activator, partial curve]. For `CC(C)(C)c1nc2ccc([N+](=O)[O-])cc2[nH]1`, the Potency was inconclusive: 29.1 µM [inhibitor, single point]. With `CCCc1cc(=O)n2[nH]c(-c3ccco3)nc2n1` the “activity change, negative = inhibition” value was inactive: 13.8%. With `CCCCN(C(=O)c1ccccc1OCc1ccc(F)cc1)c1c(N)n(CCC)c(=O)[nH]c1=O` the “activity change, negative = inhibition” value was inactive: 12.4%. In the case of `COC(=O)C1=C(C)N(Cc2ccccc2)C(=NCc2ccc3c(c2)OCO3)N[C@H]1c1ccccc1`, the Potency is reported as inconclusive: 10.3 µM [activator, partial curve, poor fit]. For `O=S(=O)(Cc1ccc(Cl)cc1)c1ncc(CO)n1Cc1ccccc1`, the Potency was inconclusive: 23.1 µM [inhibitor, partial curve, poor fit]. With `Cc1ccc(-c2ccc(C(=O)NCc3ccccc3)o2)c2ccccc12` the “activity change, negative = inhibition” value was inactive: 0.407%. For `COc1ccc(C)cc1NC(=O)c1ccc2c(SCC(=O)O)c3c(nc2c1)CCCC3`, the “activity change, negative = inhibition” value was inactive: 12.7%. For `CCN(C(=N)N=C(N)N)c1ccccc1`, the “activity change, negative = inhibition” value was inactive: 4.47%. With `NC(=O)c1sc2nc3c(c(-c4ccc(Cl)cc4)c2c1N)CCCC3` the Potency was inconclusive: 14.6 µM [inhibitor, partial curve, poor fit]. For `COc1ccc(CCCC(=O)NCC(=O)N/N=C/c2cc(Cl)ccc2OC)cc1`, the Potency was inconclusive: 18.3 µM [inhibitor, single point]. With `c1csc(CCNc2ncnc3sc4c(c23)CCC4)c1` the Potency was inconclusive: 8.2 µM [inhibitor, partial curve]. With `O=C(COc1ccccc1Cl)NCc1ccccc1` the Potency was inconclusive: 35.5 µM [activator, single point]. In the case of `Cc1cccc(OCCCSc2nc3ccc(C)cc3[nH]2)c1`, the “activity change, negative = inhibition” value is reported as inactive: 12.3%. In the case of `COc1ccc(-c2nc(Cn3c(SCc4ccccc4F)nc4ccncc43)c(C)o2)cc1`, the “activity change, negative = inhibition” value is reported as inactive: 0.785%. With `CCCc1c(NC(=O)Nc2ccc(F)cc2)cnn1-c1ccc(Cl)cc1` the “activity change, negative = inhibition” value was inactive: -16%. With `O=c1c2cc(NC(=S)N3CCCCCC3)ccc2nc2n1CCCCC2` the Potency was inconclusive: 14.6 µM [inhibitor, partial curve]. In the case of `CCc1nc2c(oc3ccccc32)c(=O)[nH]1`, the Potency is reported as inconclusive: 25.9 µM [activator, single point]. For `COC(=O)c1ccc(C2=NOC(C)(c3sc(-c4ccc(Cl)cc4)nc3C)C2)cc1` (stereo not given), the Potency was inconclusive: 6.51 µM [inhibitor, single point]. In the case of `O=S(Cc1ccc(Br)cc1)Cc1nnc(SCc2c(F)cccc2Cl)n1-c1ccccc1` (stereo not given), the Potency is reported as active: 23.1 µM. With `CN(c1ccc(O)cc1)c1nc(-c2ccccc2)cs1` the Potency was inconclusive: 2.59 µM [activator, full curve]. With `O=C(Nc1nc2ccccc2c(=O)s1)c1ccc(F)cc1Cl` the Potency was inconclusive: 18.3 µM [activator, single point]. In the case of `O=C(Nc1nc2ccsc2c(=O)s1)c1ccc(F)cc1`, the Potency is reported as inconclusive: 8.2 µM [activator, partial curve]. For `CN(Cc1ccccc1)S(=O)(=O)c1ccc(OCC(=O)Nc2cccc([N+](=O)[O-])c2)cc1`, the “activity change, negative = inhibition” value was inactive: 0.7%. For `O=C(/C=C/c1ccc(O)c(O)c1)NC(=O)c1ccccc1O`, the Potency was inconclusive: 25.9 µM [activator, single point]. In the case of `CC12CN3CCN(CC(C3)/C1=N\NC(=O)c1ccccc1N)C2`, the Potency is reported as inconclusive: 18.3 µM [activator, single point]. For `CC(C)(C)OC(=O)NCCCCCNC(=O)c1nc[nH]c1C(=O)NCC(=O)OCc1ccccc1`, the Potency was active: 2.59 µM. With `Nc1nonc1-n1nnc(C(=O)N/N=C/c2cccnc2)c1CSc1ccccc1` the “activity change, negative = inhibition” value was inactive: -1.7%. For `CCC(NC(=O)c1cc(COc2ccc(F)cc2Cl)on1)c1ccncc1` (stereo not given), the Potency was inconclusive: 32.6 µM [inhibitor, partial curve, poor fit]. In the case of `C#CCOCCOCCOCCNc1nc(N2CCN(C(=O)CCCCCCCCCCNC(=O)[C@H]([C@@H](C)CC)n3cc(CCCCN=C(N)N)nn3)CC2)nc(N2CCN(C(=O)CCCCCCCCCCNC(=O)[C@H]([C@@H](C)CC)n3cc(CCCCN=C(N)N)nn3)CC2)n1`, the Potency is reported as inconclusive: 14.1 µM [inhibitor, single point]. In the case of `COc1cc(/C=C/C(=O)O)ccc1OS(=O)(=O)c1c(C)c(C)cc(C)c1C`, the Potency is reported as inconclusive: 31.6 µM [activator, single point].
